Source: PubChem BioAssay AID493246 (Drosophila RNAi Screening Center, 2011)
Assay: 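Genome-wide search for dsRNAs that reduce cell number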 (primary screen). System: Drosophila Kc and S2R+ cells. Reagents: long dsRNA against Drosophila genes. Measurement: 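Raw, unnormalised count of remaining cells in each well; per-plate z-scores of cell number underlie the calls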. Scale: Kc cell number and S2R+ cell number: higher = more cells remaining. Call rule: 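Active when the per-plate z-score of cell number is 3 or more in the direction of fewer cells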.
In all, the deposit lists about 21,000 reagents; shown is an unselected part of those with a known target gene and a result. In the full data, 429 (2%) are marked active. 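Values are raw and not normalised between plates; calls rest on per-plate z-scores that were not deposited.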 A number with no mark means an inactive call. No sequences are given here. Not stated in the record: the amount of reagent, the time to read-out.

target gene | dsRNA | Kc cell number, rep 1 | Kc cell number, rep 2 | S2R+ cell number, rep 1 | S2R+ cell number, rep 2
CG5160 | DRSC02821 | 1.65e6 | 1.42e6 | 1.20e6 | 1.36e6
CG10734 | DRSC05998 | 1.45e6 | 1.55e6 | 1.15e6 | 1.25e6
CG14795 | DRSC18513 | 1.52e6 | 1.57e6 | 9.12e5 | 9.97e5
Drs | DRSC08657 | 1.41e6 | 1.30e6 | 9.57e5 | 1.22e6
dysc | DRSC10273 | 1.34e6 | 1.36e6 | 9.81e5 | 1.13e6
dysc | DRSC11040 | 1.70e6 | 1.81e6 | 1.29e6 | 1.38e6
sro | DRSC14469 | 1.36e6 | 1.30e6 | 9.47e5 | 1.08e6
Nup205 | DRSC19432 | 1.23e6 | 1.33e6 | 9.73e5 | 1.04e6
CG1409 | DRSC17910 | 1.53e6 | 1.41e6 | 1.10e6 | 1.23e6
Acp29AB | DRSC01857 | 1.69e6 | 1.76e6 | 9.14e5 | 1.16e6
CG17169 | DRSC20905 | 1.53e6 | 1.61e6 | 1.14e6 | 1.32e6
CG16956 | DRSC02544 | 1.51e6 | 1.53e6 | 1.33e6 | 1.43e6
CG30269 | DRSC04158 | 1.81e6 | 1.90e6 | 1.26e6 | 1.32e6
CG12069 | DRSC14470 | 1.49e6 | 1.53e6 | 9.95e5 | 1.08e6
Dysb | DRSC10730 | 1.71e6 | 1.83e6 | 1.40e6 | 1.44e6
CG33120 | DRSC02073 | 1.31e6 | 1.30e6 | 1.32e6 | 1.29e6
Sgs4 | DRSC18715 | 1.56e6 | 1.56e6 | 1.07e6 | 1.28e6
CG13386 | DRSC02260 | 1.57e6 | 1.59e6 | 1.26e6 | 1.43e6
CG15741 | DRSC19707 | 1.47e6 | 1.41e6 | 9.50e5 | 1.05e6
CG9004 | DRSC08617 | 1.39e6 | 1.29e6 | 1.00e6 | 1.17e6
disco-r | DRSC20173 | 1.62e6 | 1.62e6 | 1.17e6 | 1.28e6
disco-r | DRSC20174 | 1.68e6 | 1.67e6 | 1.19e6 | 1.29e6
CG4627 | DRSC06873 | 1.59e6 | 1.59e6 | 1.25e6 | 1.32e6

Reformatted: entries from further up.
Nup205 [DRSC19432]
- Kc cell number, rep 1: 1.23e6
- Kc cell number, rep 2: 1.33e6
- S2R+ cell number, rep 1: 9.73e5
- S2R+ cell number, rep 2: 1.04e6

CG1409 [DRSC17910]
- Kc cell number, rep 1: 1.53e6
- Kc cell number, rep 2: 1.41e6
- S2R+ cell number, rep 1: 1.10e6
- S2R+ cell number, rep 2: 1.23e6

Acp29AB [DRSC01857]
- Kc cell number, rep 1: 1.69e6
- Kc cell number, rep 2: 1.76e6
- S2R+ cell number, rep 1: 9.14e5
- S2R+ cell number, rep 2: 1.16e6

CG17169 [DRSC20905]
- Kc cell number, rep 1: 1.53e6
- Kc cell number, rep 2: 1.61e6
- S2R+ cell number, rep 1: 1.14e6
- S2R+ cell number, rep 2: 1.32e6

CG16956 [DRSC02544]
- Kc cell number, rep 1: 1.51e6
- Kc cell number, rep 2: 1.53e6
- S2R+ cell number, rep 1: 1.33e6
- S2R+ cell number, rep 2: 1.43e6

Next results follow.
target gene | dsRNA | Kc cell number, rep 1 | Kc cell number, rep 2 | S2R+ cell number, rep 1 | S2R+ cell number, rep 2
CG2100 | DRSC12303 | 1.67e6 | 1.78e6 | 1.31e6 | 1.40e6
CG12012 | DRSC08220 | 1.47e6 | 1.32e6 | 1.05e6 | 1.27e6
Cyt-c-p | DRSC03310 | 1.38e6 | 1.47e6 | 1.15e6 | 1.30e6
CG18809 | DRSC19818 | 1.51e6 | 1.53e6 | 1.07e6 | 1.11e6
Keap1 | DRSC15528 | 1.55e6 | 1.69e6 | 1.22e6 | 1.33e6
CG32091 | DRSC10141 | 1.58e6 | 1.57e6 | 1.22e6 | 1.30e6
CG32091 | DRSC10820 | 1.51e6 | 1.48e6 | 1.22e6 | 1.36e6
CG42748 | DRSC03712 | 1.45e6 | 1.53e6 | 1.30e6 | 3.04e5
CG42748 | DRSC03713 | 1.46e6 | 1.51e6 | 1.03e6 | 1.15e6
CG42748 | DRSC03734 | 1.48e6 | 1.56e6 | 1.17e6 | 2.68e5
sbb | DRSC05723 | 5.55e5 | – | 7.82e5 | –
sbb | DRSC07676 | 1.73e6 | 1.72e6 | 1.33e6 | 1.45e6
CG14556 | DRSC14899 | 1.37e6 | 1.43e6 | 1.02e6 | 1.15e6
Sry-delta | DRSC16869 | 5.67e5 | – | 7.16e5 | –
CG17109 | DRSC15172 | 1.42e6 | 1.49e6 | 1.01e6 | 1.09e6
CG12384 | DRSC06145 | 1.51e6 | 1.64e6 | 1.06e6 | 1.07e6
exu | DRSC07615 | 1.25e6 | 1.29e6 | 1.14e6 | 1.21e6
